Measurements reported in the supplement of paper PMC4604168 (melanoma cell lines).
The other results are listed elsewhere or left out. Repeats are few or missing, and single values can be far off.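 Cells were imaged in 1,536-well plates, and nuclei stained with an antibody against cleaved PARP were counted against all DNA-stained nuclei to give the apoptosis fraction. Screening doses were chosen to leave most cells alive, and resting and induced cleaved-PARP levels differ strongly between cell lines.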

tested on: SkMel5; assay: cleaved PARP positive nuclei fraction relative to DMSO control; melanoma cells; higher = more apoptosis; details: library dose: low library concentration; 72 h

First: Nc1nc(F)nc2c1ncn2[C@@H]1O[C@H](CO)[C@@H](O)[C@@H]1O [fludarabine] + CCc1ccc(CCOc2ccc(CC3SC(=O)NC3=O)cc2)nc1 [pioglitazone] (first compound 0.2 µM, partner dose 2 µM)
Second: Nc1ncn([C@H]2C[C@H](O)[C@@H](CO)O2)c(=O)n1 [decitabine] + COc1ccc2c(c1)CCC1C2CCC2(C)C(NCCCCCCN3C(=O)C=CC3=O)CCC12 [U73122] (first compound 0.1 µM, partner dose 0.4 µM)
The “cleaved PARP positive nuclei fraction” value of the first is higher: 116% for the first, 72.2% for the second.

Compared with `CS(=O)(=O)CCNCc1ccc(-c2ccc3ncnc(Nc4ccc(OCc5cccc(F)c5)c(Cl)c4)c3c2)o1` [lapatinib] + OCCn1cc(-c2cnc3nnn(Cc4ccc5ncccc5c4)c3n2)cn1 [PF04217903] (first compound 0.8 µM, partner dose 1 µM), `Cn1c(=O)n(-c2ccc(C(C)(C)C#N)cc2)c2c3cc(-c4cnc5ccccc5c4)ccc3ncc21` + CCCCCCCCCCCC1=C(O)C(=O)C=C(O)C1=O [Embelin] (first compound 0.004 µM, partner dose 1.2 µM) is lower in “cleaved PARP positive nuclei fraction” value: 143% for the first, 79.2% for the second.

Compared with `CNC(=O)c1cc(Oc2ccc(NC(=O)Nc3ccc(Cl)c(C(F)(F)F)c3)cc2)ccn1` [sorafenib] + Cc1cc([N+](=O)[O-])ccc1NS(=O)(=O)c1cc(Cl)ccc1Cl [FH535] (first compound 0.4 µM, partner dose 1 µM), `CCCS(=O)(=O)Nc1ccc(F)c(C(=O)c2c[nH]c3ncc(Cl)cc23)c1F` + N#Cc1c(O)c2c(-c3ccc(-c4ccccc4O)cc3)csc2[nH]c1=O [A769662] (first compound 0.08 µM, partner dose 2 µM) is lower in “cleaved PARP positive nuclei fraction” value: 78.2% for the first, 66.2% for the second.

Going from `CN1CCN(c2ccc3nc(-c4c(N)c5c(F)cccc5[nH]c4=O)[nH]c3c2)CC1` [Dovitinib] + COc1ccc2c(c1)CCC1C2CCC2(C)C(NCCCCCCN3C(=O)C=CC3=O)CCC12 [U73122] (first compound 0.1 µM, partner dose 0.4 µM) to `Cc1cc(Nc2cc(N3CCN(C)CC3)nc(/C=C/c3ccccc3)n2)n[nH]1` + COC(=O)c1sccc1S(=O)(=O)Nc1ccc(Nc2ccccc2)cc1OC [GSK0660] (first compound 0.04 µM, partner dose 1 µM), the “cleaved PARP positive nuclei fraction” value falls from 81.5% to 65.9%.

Going from `O=C(O)[C@@H]1[O][Sb](=[O])([O][Sb]2(=[O])[O][C@H]([C@H](O)CO)[C@H](O)[C@H](C(=O)O)[O]2)[O][C@H]([C@H](O)CO)[C@@H]1O` (stereo partly specified) [stibogluconate] + COc1cc(N2CCC(N3CCN(C)CC3)CC2)ccc1Nc1ncc(Cl)c(Nc2ccccc2S(=O)(=O)C(C)C)n1 [NVP-TAE684] (first compound 2 µM, partner dose 0.08 µM) to `CC(C)C[C@H](NC(=O)[C@H](Cc1ccccc1)NC(=O)c1cnccn1)B(O)O` [Bortezomib] + Cc1cc([N+](=O)[O-])ccc1NS(=O)(=O)c1cc(Cl)ccc1Cl [FH535] (first compound 0.001 µM, partner dose 1 µM), the “cleaved PARP positive nuclei fraction” value falls from 164% to 110%.

Going from `CN1CCN(c2ccc3nc(-c4c(N)c5c(F)cccc5[nH]c4=O)[nH]c3c2)CC1` [Dovitinib] + Cc1cc(N2CCOCC2)cc2[nH]c(-c3c(NC[C@@H](O)c4cccc(Cl)c4)cc[nH]c3=O)nc12 [BMS536924] (first compound 0.1 µM, partner dose 0.2 µM) to `C[C@@H](Oc1cc(-c2cnn(C3CCNCC3)c2)cnc1N)c1c(Cl)ccc(F)c1Cl` [Crizotinib] + COc1ccc(-c2ccc3c(N4CCOCC4)nc(N4C[C@@H](C)O[C@@H](C)C4)nc3n2)cc1CO [KU0063794] (first compound 0.2 µM, partner dose 0.02 µM), the “cleaved PARP positive nuclei fraction” value falls from 159% to 89.6%.

First: O=C(O)[C@@H]1[O][Sb](=[O])([O][Sb]2(=[O])[O][C@H]([C@H](O)CO)[C@H](O)[C@H](C(=O)O)[O]2)[O][C@H]([C@H](O)CO)[C@@H]1O (stereo partly specified) [stibogluconate] + O=C(O)c1ccc(-c2c[nH]c3ncc(-c4ccccc4)cc23)cc1C1CCCC1 [GSK650394] (first compound 2 µM, partner dose 0.16 µM)
Second: CC(C)C[C@H](NC(=O)[C@H](Cc1ccccc1)NC(=O)c1cnccn1)B(O)O [Bortezomib] + O=C(CCCCCCC(=O)Nc1ccccc1)NO [vorinostat] (first compound 0.001 µM, partner dose 0.08 µM)
The “cleaved PARP positive nuclei fraction” value of the first is higher: 129% for the first, 67.7% for the second.

Compared with `CN1CCN(c2ccc3nc(-c4c(N)c5c(F)cccc5[nH]c4=O)[nH]c3c2)CC1` [Dovitinib] + NCC(=O)Nc1ccc(-n2nc(C(F)(F)F)cc2-c2ccc3c(ccc4ccccc43)c2)cc1 [OSU03012] (first compound 0.1 µM, partner dose 1 µM), `C=C(c1ccc(C(=O)O)cc1)c1cc2c(cc1C)C(C)(C)CCC2(C)C` [Bexarotene] + Cc1cc([N+](=O)[O-])ccc1NS(=O)(=O)c1cc(Cl)ccc1Cl [FH535] (first compound 2 µM, partner dose 1 µM) is lower in “cleaved PARP positive nuclei fraction” value: 74.7% for the first, 46.1% for the second.
